Data as given in PubChem BioAssay AID1159584 (Peter MacCallum Cancer Centre, 2016).
The deposit covers about 18,000 reagents; shown is a part drawn at random. Not given: the amount of reagent, the time to read-out.

- Aim: 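Genes whose loss is lethal only together with E-cadherin loss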 (primary screen)
- System: human MCF10A breast epithelial cells, parental and CDH1-null
- Reagents: siRNA against human genes
- Measurement: 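ATP luminescence (CellTiter-Glo) viability per line relative to mean mock wells over all plates, and the ratio of CDH1-null to parental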
- Reading the numbers: CDH1-null / parental viability ratio: higher = CDH1-null cells survive relatively better than parental; CDH1-null viability vs mock: higher = more viable CDH1-null cells; parental viability vs mock: higher = more viable parental cells

target,CDH1-null / parental viability ratio,CDH1-null viability vs mock (fraction of mock),parental viability vs mock (fraction of mock)
OR6C4 (olfactory receptor family 6 subfamily C member 4),0.94,0.81,0.86
RNF14 (ring finger protein 14),0.94,0.58,0.62
DOCK11 (dedicator of cytokinesis 11),1.44,0.88,0.61
TRMT10B (tRNA methyltransferase 10B),1.4,1.29,0.92
KCNN4 (potassium calcium-activated channel subfamily N member 4),1.11,0.8,0.72
LDHB (lactate dehydrogenase B),1.02,0.87,0.85
ITGB3 (integrin subunit beta 3),0.85,0.56,0.66
RRH (retinal pigment epithelium-derived rhodopsin homolog),0.69,0.82,1.18
RGL2 (ral guanine nucleotide dissociation stimulator like 2),1.15,0.82,0.71
NPVF (neuropeptide VF precursor),0.86,0.81,0.94
SAMTOR (S-adenosylmethionine sensor upstream of mTORC1),1.1,0.8,0.73
IRX1 (iroquois homeobox 1),0.97,0.34,0.35
ENDOG (endonuclease G),0.54,0.36,0.67
PRKCB (protein kinase C beta),0.84,0.76,0.9
GSPT2 (G1 to S phase transition 2),0.94,1,1.06
CD84 (CD84 molecule),1.17,0.88,0.75
PAK1IP1 (PAK1 interacting protein 1),1.17,0.9,0.77
TMEM147 (transmembrane protein 147),1.12,0.72,0.64
SMG7 (SMG7 nonsense mediated mRNA decay factor),1.06,0.74,0.7
EFCAB11 (EF-hand calcium binding domain 11),1.38,0.76,0.55
WNT7B (Wnt family member 7B),0.98,0.5,0.51
BAGE3 (BAGE family member 3),0.68,0.32,0.47
COLGALT2 (collagen beta(1-O)galactosyltransferase 2),0.82,0.72,0.88
SH2D6 (SH2 domain containing 6),1.02,0.92,0.9
KPNA3 (karyopherin subunit alpha 3),0.79,0.76,0.96
SNUPN (snurportin 1),1,0.76,0.76
SPATA18 (spermatogenesis associated 18),0.86,0.76,0.88
SUCO (SUN domain containing ossification factor),0.85,0.55,0.65
DAXX (death domain associated protein),0.92,0.92,1
ZNF521 (zinc finger protein 521),0.97,0.73,0.75
MRPL38 (mitochondrial ribosomal protein L38),0.86,0.36,0.42
TRAF2 (TNF receptor associated factor 2),1.27,0.56,0.44
ZFYVE21 (zinc finger FYVE-type containing 21),0.79,0.54,0.68
APLF (aprataxin and PNKP like factor),1.73,0.78,0.45
HDGFL2 (HDGF like 2),0.81,0.66,0.81
CCDC33 (coiled-coil domain containing 33),0.82,0.64,0.78
TMPRSS2 (transmembrane serine protease 2),1.16,0.88,0.76
AFAP1 (actin filament associated protein 1),1.18,0.73,0.62
MINPP1 (multiple inositol-polyphosphate phosphatase 1),1.62,0.94,0.58
KANK4 (KN motif and ankyrin repeat domains 4),1.07,0.94,0.88
DNAJC25-GNG10 (DNAJC25-GNG10 readthrough),0.68,0.49,0.72
P4HB (prolyl 4-hydroxylase subunit beta),1.19,0.88,0.74
ZNF133 (zinc finger protein 133),1.26,0.68,0.54
CIAPIN1 (cytokine induced apoptosis inhibitor 1),0.93,0.57,0.61
"PCDHGA3 (protocadherin gamma subfamily A, 3)",0.95,0.78,0.82
KIF16B (kinesin family member 16B),1,0.72,0.72
CKAP4 (cytoskeleton associated protein 4),1,0.46,0.46
KRTAP6-2 (keratin associated protein 6-2),0.91,0.4,0.44
MRO (maestro),1.13,1.02,0.9
WDR83OS (WD repeat domain 83 opposite strand),0.96,0.54,0.56
MTG1 (mitochondrial ribosome associated GTPase 1),1.04,0.86,0.83
GTF2A2 (general transcription factor IIA subunit 2),0.94,1,1.06
TGIF2LX (TGFB induced factor homeobox 2 like X-linked),0.95,0.82,0.86
DIP2A (DIP2 acetate--CoA ligase A),1.26,1.1,0.87
ITGB5 (integrin subunit beta 5),1.22,0.9,0.74
C6orf118 (chromosome 6 open reading frame 118),1.41,0.9,0.64
IL17REL (interleukin 17 receptor E like),0.75,0.7,0.93
GPR19 (G protein-coupled receptor 19),0.81,0.68,0.84
FAM107B (family with sequence similarity 107 member B),0.72,0.46,0.64
PAMR1,1.1,0.9,0.82
HOXD13 (homeobox D13),1.04,0.86,0.83
VEZF1 (vascular endothelial zinc finger 1),0.99,0.95,0.96
SCARA3 (scavenger receptor class A member 3),0.77,0.62,0.8
"METTL9 (methyltransferase 9, His-X-His N1(pi)-histidine)",0.94,1.03,1.1
ASPN (asporin),0.98,0.86,0.88
OR56B1 (olfactory receptor family 56 subfamily B member 1),1.03,0.91,0.88
FAM222B (family with sequence similarity 222 member B),1,0.6,0.6
TSPAN6 (tetraspanin 6),1.04,0.98,0.94
